Data as given in publication PMC2644779.
Results are given in words; binding and its absence hold for the method and conditions named. For part of these data: Binding seen in cells or lysates may run through a third protein. Some results given as binding are weak or reduced against the parent protein; the word gives no strength. For part of these data: Tags and fused reporters may be left off the sequences shown.

T1: wild type PINK1 (PTEN induced kinase 1), full length, C-terminally tagged (human), Q9BXM7
T1 chain: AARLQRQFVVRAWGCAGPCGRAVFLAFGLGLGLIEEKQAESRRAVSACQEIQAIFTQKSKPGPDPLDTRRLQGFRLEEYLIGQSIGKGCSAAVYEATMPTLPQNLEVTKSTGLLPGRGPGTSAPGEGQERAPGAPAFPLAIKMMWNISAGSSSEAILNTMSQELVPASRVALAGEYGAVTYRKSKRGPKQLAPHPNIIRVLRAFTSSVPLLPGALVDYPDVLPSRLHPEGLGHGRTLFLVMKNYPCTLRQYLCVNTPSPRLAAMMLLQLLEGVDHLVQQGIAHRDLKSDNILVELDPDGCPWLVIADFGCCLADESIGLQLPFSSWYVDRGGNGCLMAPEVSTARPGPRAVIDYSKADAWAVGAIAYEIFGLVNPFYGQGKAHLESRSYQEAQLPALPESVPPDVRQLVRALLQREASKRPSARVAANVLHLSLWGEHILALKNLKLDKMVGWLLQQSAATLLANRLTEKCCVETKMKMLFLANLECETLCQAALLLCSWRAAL

T2: endogenous PINK1 (human (endogenous in SH-SY5Y)), Q9BXM7
T2 chain: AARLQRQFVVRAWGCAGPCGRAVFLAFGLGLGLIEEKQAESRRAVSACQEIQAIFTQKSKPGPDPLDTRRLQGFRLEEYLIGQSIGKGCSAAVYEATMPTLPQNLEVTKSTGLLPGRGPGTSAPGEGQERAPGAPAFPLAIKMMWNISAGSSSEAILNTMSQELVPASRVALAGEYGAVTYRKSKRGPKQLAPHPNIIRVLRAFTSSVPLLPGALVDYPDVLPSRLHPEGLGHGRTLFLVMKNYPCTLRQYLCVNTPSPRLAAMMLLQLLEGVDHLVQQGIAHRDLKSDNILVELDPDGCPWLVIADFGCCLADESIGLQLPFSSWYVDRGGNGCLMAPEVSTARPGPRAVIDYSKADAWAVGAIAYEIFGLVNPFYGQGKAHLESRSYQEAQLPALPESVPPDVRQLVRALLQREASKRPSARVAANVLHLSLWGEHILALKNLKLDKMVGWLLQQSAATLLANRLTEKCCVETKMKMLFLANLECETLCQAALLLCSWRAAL


Tests used:
[1] = target: E417G-PINK1, full length, C-terminally tagged (human) (UniProt Q9BXM7); experiment: co-IP; HEK293 cells co-transfected with a pair of differently tagged PINK1 constructs; lysis buffer 50 mM Tris pH 7.4, 150 mM NaCl, 1 mM EDTA, 0.1% Triton; IP by one tag (anti-Flag, anti-V5 or anti-GFP) at 4°C, Western blot for the other tag
[2] = target: E417G-PINK1, full length, C-terminally tagged (human) (UniProt Q9BXM7); experiment: co-IP; repeat of the co-IP experiments in COS and HeLa cells, data not shown
[3] = target: L347P-PINK1, full length, C-terminally tagged (human) (UniProt Q9BXM7); experiment: co-IP; HEK293 cells co-transfected with a pair of differently tagged PINK1 constructs; lysis buffer 50 mM Tris pH 7.4, 150 mM NaCl, 1 mM EDTA, 0.1% Triton; IP by one tag (anti-Flag, anti-V5 or anti-GFP) at 4°C, Western blot for the other tag
[4] = target: L347P-PINK1, full length, C-terminally tagged (human) (UniProt Q9BXM7); experiment: co-IP; repeat of the co-IP experiments in COS and HeLa cells, data not shown
PINK1(1-509)-V5 (human) [5] = target: PINK1(1-509)-V5 (human) (UniProt Q9BXM7); experiment: co-IP; HEK293 cells co-transfected with a pair of differently tagged PINK1 constructs; lysis buffer 50 mM Tris pH 7.4, 150 mM NaCl, 1 mM EDTA, 0.1% Triton; IP by one tag (anti-Flag, anti-V5 or anti-GFP) at 4°C, Western blot for the other tag
PINK1(1-525)-V5 (human) [6] = target: PINK1(1-525)-V5 (human) (UniProt Q9BXM7); experiment: as above
PINK1(1-509)-V5 (human) [7] = target: PINK1(1-509)-V5 (human) (UniProt Q9BXM7); experiment: co-IP; repeat of the co-IP experiments in COS and HeLa cells, data not shown
PINK1(1-525)-V5 (human) [8] = target: PINK1(1-525)-V5 (human) (UniProt Q9BXM7); experiment: as above
[9] = target: T1, wild type PINK1 (PTEN induced kinase …); experiment: co-IP; HEK293 cells co-transfected with a pair of differently tagged PINK1 constructs; lysis buffer 50 mM Tris pH 7.4, 150 mM NaCl, 1 mM EDTA, 0.1% Triton; IP by one tag (anti-Flag, anti-V5 or anti-GFP) at 4°C, Western blot for the other tag; conditions: remark: other sources report otherwise
[10] = target: T1, wild type PINK1 (PTEN induced kinase …); experiment: co-IP; repeat of the co-IP experiments in COS and HeLa cells, data not shown; conditions: remark: other sources report otherwise
[11] = target: T2, endogenous PINK1 (human (endogenous in …)); experiment: sucrose gradient sedimentation; mitochondrial proteins of SH-SY5Y cells (infected with PINK1 adenoviruses, or endogenous PINK1) sub-fractionated on a 15% to 35% discontinuous sucrose gradient, fractions 1-10, SDS-PAGE and Western blot; conditions: remark: other sources report otherwise

| binding [1] | binding [2] | binding [3] | binding [4] | Molecule | further results |
| --- | --- | --- | --- | --- | --- |
| binds | binds |  |  | E417G-PINK1, full length, C-terminally tagged (from UniProt Q9BXM7 78-581) |  |
|  |  | binds | binds | L347P-PINK1, full length, C-terminally tagged (from UniProt Q9BXM7 78-581) |  |
| binds | binds | binds | binds | wild type PINK1 (PTEN induced kinase 1), full length, C-terminally tagged (from UniProt Q9BXM7 78-581) | binding (PINK1(1-509)-V5 (human) [5]): binds; binding (PINK1(1-525)-V5 (human) [6]): binds; binding (PINK1(1-509)-V5 (human) [7]): binds; binding (PINK1(1-525)-V5 (human) [8]): binds |
|  |  |  |  | wild type PINK1 (PTEN induced kinase 1), full length, C-terminally tagged, Q9BXM7 78-581 (protein) AARLQRQFVVRAWGCAGPCGRAVFLAFGLGLGLIEEKQAESRRAVSACQEIQAIFTQKSKPGPDPLDTRRLQGFRLEEYLIGQSIGKGCSAAVYEATMPTLPQNLEVTKSTGLLPGRGPGTSAPGEGQERAPGAPAFPLAIKMMWNISAGSSSEAILNTMSQELVPASRVALAGEYGAVTYRKSKRGPKQLAPHPNIIRVLRAFTSSVPLLPGALVDYPDVLPSRLHPEGLGHGRTLFLVMKNYPCTLRQYLCVNTPSPRLAAMMLLQLLEGVDHLVQQGIAHRDLKSDNILVELDPDGCPWLVIADFGCCLADESIGLQLPFSSWYVDRGGNGCLMAPEVSTARPGPRAVIDYSKADAWAVGAIAYEIFGLVNPFYGQGKAHLESRSYQEAQLPALPESVPPDVRQLVRALLQREASKRPSARVAANVLHLSLWGEHILALKNLKLDKMVGWLLQQSAATLLANRLTEKCCVETKMKMLFLANLECETLCQAALLLCSWRAAL | binding [9]: binds; binding [10]: binds |
|  |  |  |  | endogenous PINK1, Q9BXM7 78-581 (protein) AARLQRQFVVRAWGCAGPCGRAVFLAFGLGLGLIEEKQAESRRAVSACQEIQAIFTQKSKPGPDPLDTRRLQGFRLEEYLIGQSIGKGCSAAVYEATMPTLPQNLEVTKSTGLLPGRGPGTSAPGEGQERAPGAPAFPLAIKMMWNISAGSSSEAILNTMSQELVPASRVALAGEYGAVTYRKSKRGPKQLAPHPNIIRVLRAFTSSVPLLPGALVDYPDVLPSRLHPEGLGHGRTLFLVMKNYPCTLRQYLCVNTPSPRLAAMMLLQLLEGVDHLVQQGIAHRDLKSDNILVELDPDGCPWLVIADFGCCLADESIGLQLPFSSWYVDRGGNGCLMAPEVSTARPGPRAVIDYSKADAWAVGAIAYEIFGLVNPFYGQGKAHLESRSYQEAQLPALPESVPPDVRQLVRALLQREASKRPSARVAANVLHLSLWGEHILALKNLKLDKMVGWLLQQSAATLLANRLTEKCCVETKMKMLFLANLECETLCQAALLLCSWRAAL | binding [11]: binds |
